From PMC12040169 (PLOS Biology, 2025)
Some of the results follow.

System: T1, CTL2-GFP (C. trachomatis L2/434/Bu, GFP-expressing)
T1 construct: L2/434/Bu, GFP-expressing
Design: species or system HeLa; Intracellular C. trachomatis growth in HeLa cells, bulk GFP fluorescence relative to DMSO
Conditions: bulk GFP, single well; 28.5 h, 10 µM; inhibitor

| Structure (SMILES) | % of control remaining [%] |
| --- | --- |
| O=C(c1ccccc1Br)N1CCN(c2ccc([N+](=O)[O-])c(NCc3cccnc3)c2)CC1 [CBK265735] | 180.034 |
| CCn1c(SC(C)C(N)=O)nc2ccc(Br)cc2c1=O (centres unmarked) [CBK306424] | 100.515 |
| CCOC(=O)C1=C(C)NC(=O)NC1c1ccc(-c2ccccc2F)o1 (centres unmarked) [CBK263867] | 100 |
| C1=CCC(CN(CCCn2ccnc2)Cc2cccnc2)CC1 (centres unmarked) [CBK283216] | 119.418 |
| Cc1nc(C(Cc2ccsc2)NC(=O)C2CCCNC2)sc1C (centres unmarked) [CBK282228] | 152.241 |
| C=CCn1c(COc2cccc3ccc(C)nc23)nnc1SC [CBK266608] | 98.6365 |
| O=C(COc1ccc([N+](=O)[O-])cc1)Nc1ccc(S(=O)(=O)N2CCCCC2)cc1 [CBK265003] | 108.178 |
| OC(CN1CCC(O)(c2ccc(F)cc2)CC1)c1ccc(F)cc1 (centres unmarked) [CBK282510] | 131.938 |
| Cc1ccc2c(c1)CCCN2C(=O)c1csc2c(C(F)(F)F)cc(N3CCOCC3)nc12 [CBK028367] | 54.8973 |
| O=C(c1cnccn1)N1CCC(Cc2ccccc2)CC1 [CBK200181] | 101.733 |
| COc1cccc(CN2CCCC(NC(=O)c3ccccc3Cl)C2)c1 (centres unmarked) [CBK306774] | 69.7044 |
| O=C(NCCc1ccc(O)cc1)c1ccc2[nH]ccc2c1 [CBK149063] | 118.632 |
| O=C(Nc1ccc2ncccc2c1)c1ccc(F)c(F)c1 [CBK159810] | 113.566 |
| CC(=O)Nc1ccc(-c2ccc3n(c2=O)C[C@H]2C[C@@H]3CN(C(=O)C3CCCCC3)C2)cc1 [CBK289188] | 109.104 |
| O=C(Cn1cc(C(=O)Nc2cc(F)ccc2N2CCCC2)ccc1=O)NC1CCCCC1 [CBK285981] | 100.355 |
| Cc1ccccc1C(=O)NCCNC(=O)c1nonc1N [CBK267677] | 93.2531 |
| Brc1cnc(OCc2ccccc2)nc1OCc1ccccc1 [CBK261274] | 100 |
| N#CCC(=O)Nc1ccc(F)c(Cl)c1 [CBK085905] | 134.355 |
| NC(=O)c1ccccc1NC(=O)CN1CCN(Cc2cccc(Cl)c2)CC1 [CBK270320] | 143.392 |
| CCN(CC)C(=O)c1ccccc1NS(=O)(=O)Cc1ccccc1[N+](=O)[O-] [CBK045428] | 129.851 |
| CCCCn1nnnc1NCc1cccc(OC)c1OC [CBK288091] | 123.638 |
| C[C@@H](Cn1nc2c(cc1=O)CCCC2)NC(=O)Cc1ccc(F)cc1 [CBK284526] | 129.891 |
| CSc1cccc(NC(=S)N2CCC(N(C)C(C)C)CC2)c1 [CBK294463] | 165.201 |
| COc1ccccc1-c1noc(CCCC(=O)Nc2cccc(C(F)(F)F)c2)n1 [CBK268794] | 155.352 |
| CN1CCN(Cc2nc3c(c(=O)n(C)c(=O)n3C)n2Cc2ccc(Br)cc2)CC1 [CBK269310] | 164.384 |

| Structure (SMILES) | % of control remaining [%] |
| --- | --- |
| Cc1cc(CN(C)Cc2cn(C)c3cc(F)ccc23)n[nH]1 [CBK281710] | 116.534 |
| COC(CNC(=O)Cn1nnnc1CN1CCC(C)CC1)c1cccs1 (centres unmarked) [CBK306958] | 119.569 |
| CCn1c(=O)n(CCC(=O)NC(C(N)=O)c2ccccc2)c2ccccc21 (centres unmarked) [CBK295196] | 170.712 |
| Nc1ccc(Oc2nc(Oc3ccc(N)cc3)c(F)c(Oc3ccc(N)cc3)c2F)cc1 [CBK266397C] | 164.377 |
| CCn1ncc2c1CCCC2NC1CCN(c2ccccc2F)C1=O (centres unmarked) [CBK305279] | 108.65 |
| COc1ccccc1NC(=O)N1C[C@@H]2C[C@H](C1)c1ccc(-c3cncnc3)c(=O)n1C2 [CBK289186] | 126.227 |
| O=C1CC2(CCN(C(=O)C3CCCCC3)CC2)Oc2ccc(F)cc21 [CBK282863] | 91.6909 |
| CCCCC1(COC(C)=O)OC(=O)Nc2ccc(Br)cc21 (centres unmarked) [CBK010195] | 146.086 |
| O=C(O)C1CCCCC1C(=O)Nc1cccc2ccccc12 (centres unmarked) [CBK261569] | 100 |
| OCCN(CCO)c1nc(-c2ccccc2)nc2sc(-c3ccccc3)cc12 [CBK265935] | 105.232 |
| COCCNC(=O)CSc1cc(Cl)nc(Cl)c1 [CBK020796] | 116.013 |
| Cc1cc(C)cc(OCC(=O)Nc2c(C#N)c(C)nn2C)c1 [CBK304791] | 113.144 |
| O=C(N[C@H]1CCN2C(=O)c3cc(-c4ccccc4F)ccc3NC(=O)[C@@H]2C1)c1cnccn1 [CBK289558] | 120.449 |
| CS(=O)(=O)N1CC2(CCN(CCc3c[nH]c4ccccc34)CC2)c2ccccc21 [CBK084017T] | 125.387 |
| COc1ccc(C(=O)N2CCC3(CCN(Cc4c(F)cccc4F)C3)C2)cc1OC (centres unmarked) [CBK132152] | 61.7418 |
| CC(=O)Nc1ccc(-c2ccc(=O)n3c2[C@@H]2C[C@@H](CN(C(=O)c4ccccc4)C2)C3)cc1 [CBK289198] | 111.021 |
| Cc1cc(COc2nc3ccccc3nc2NC[C@@H]2CCCO2)no1 [CBK174027] | 106.771 |
| COc1cccc(OCC(=O)O/N=C(\N)c2ccncc2)c1 [CBK262592] | 100 |
| Cc1[nH]c(=O)[nH]c(=O)c1C(=O)Nc1ccccc1 [CBK116181] | 93.6779 |
| CN(C)c1ccc(C(=O)N2CCN3C(=O)[C@H](Cc4ccc(F)cc4)NC(=O)[C@H]3C2)cc1 [CBK289601] | 96.1571 |
| CCCCSc1nc(N)cc(N2CCC(C(=O)NCC)C2)n1 (centres unmarked) [CBK306880] | 87.1163 |
| CCOc1cccc(CNC(=O)N2CCC(Cc3cnn(C)c3)C2)c1 (centres unmarked) [CBK305280] | 107.221 |
| COC(=O)c1c(NC(=S)Nn2cnnc2)sc2c1CCC(C)C2 (centres unmarked) [CBK266942] | 167.769 |
| CCc1nc2ccc(C(=O)NCC3CCCCC3)cn2c1N(C)Cc1ccc(OC)cc1 [CBK145568] | 168.63 |
| OCCn1ncc2c(NCc3nncn3-c3ccccc3)ncnc21 [CBK304608] | 165.391 |

Arranged by number of heavy atoms (high to low): part of the list above.

| Structure (SMILES) | % of control remaining [%] |
| --- | --- |
| CN1CCN(Cc2nc3c(c(=O)n(C)c(=O)n3C)n2Cc2ccc(Br)cc2)CC1 [CBK269310] | 164.384 |
| OC(CN1CCC(O)(c2ccc(F)cc2)CC1)c1ccc(F)cc1 (centres unmarked) [CBK282510] | 131.938 |
| Cc1cc(C)cc(OCC(=O)Nc2c(C#N)c(C)nn2C)c1 [CBK304791] | 113.144 |
| CCCCC1(COC(C)=O)OC(=O)Nc2ccc(Br)cc21 (centres unmarked) [CBK010195] | 146.086 |
